Data as given in PMC4484629 (Arthritis Research & Therapy, 2015).

Assay: general procedure: Fmoc solid-phase peptide synthesis; Tentagel Rink Amide; HBTU/DIPEA; OxymaPure/DIC for Arg/Cit573
Settings: whole synthesis

Substance: cyclo-CHHP GIA EFP SXG KSS SYS KQF
- crude yield: 46%
